No constants are given. Whether binding was seen depends on the method and setting.

By UniProt entry, the sequences of proteins in these tests, tags left out. Where a name states a change or a piece, a line headed by the entry shows the natural chain unless it says otherwise.
UniProt Q9RW32: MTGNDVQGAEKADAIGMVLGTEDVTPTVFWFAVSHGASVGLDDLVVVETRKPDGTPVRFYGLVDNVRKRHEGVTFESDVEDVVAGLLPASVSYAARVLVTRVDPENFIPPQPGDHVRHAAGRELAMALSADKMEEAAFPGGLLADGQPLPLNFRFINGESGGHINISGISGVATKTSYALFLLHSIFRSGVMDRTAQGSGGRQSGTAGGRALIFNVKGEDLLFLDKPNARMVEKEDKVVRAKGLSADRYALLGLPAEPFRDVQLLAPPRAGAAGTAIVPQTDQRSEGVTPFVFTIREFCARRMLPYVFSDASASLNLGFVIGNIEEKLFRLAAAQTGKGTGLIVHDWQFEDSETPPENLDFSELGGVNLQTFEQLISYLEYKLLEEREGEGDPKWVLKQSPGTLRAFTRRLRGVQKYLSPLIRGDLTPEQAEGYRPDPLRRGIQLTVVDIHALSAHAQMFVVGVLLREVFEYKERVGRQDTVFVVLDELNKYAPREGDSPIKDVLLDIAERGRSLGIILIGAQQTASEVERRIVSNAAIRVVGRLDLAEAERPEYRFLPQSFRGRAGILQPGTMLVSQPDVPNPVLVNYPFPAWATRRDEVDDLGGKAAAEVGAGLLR

These results are taken from publication PMC4663267, “A Novel C-Terminal Domain of RecJ is Critical for Interaction with HerA in Deinococcus radiodurans”.

The assay has as its target Deinococcus radiodurans HerA, wild type (Deinococcus radiodurans) (UniProt Q9RW32). Briefly: far-Western, overlay or dot blot; immunodot: proteins spotted on nitrocellulose membrane, blocked, incubated in 1 μM purified protein (100 mM NaCl, 20 mM Tris-HCl pH 7.5, 1 mM DTT, 1 mM EDTA) at 4°C overnight; checked by anti-RecJ or anti-HerA antibody; both purified.

B1: Escherichia coli RecJ, full length (enzyme, UniProt P21893 1-577)
chain: MKQQIQLRRREVDETADLPAELPPLLRRLYASRGVRSAQELERSVKGMLPWQQLSGVEKAVEILYNAFREGTRIIVVGDFDADGATSTALSVLAMRSLGCSNIDYLVPNRFEDGYGLSPEVVDQAHARGAQLIVTVDNGISSHAGVEHARSLGIPVIVTDHHLPGDTLPAAEAIINPNLRDCNFPSKSLAGVGVAFYLMLALRTFLRDQGWFDERNIAIPNLAELLDLVALGTVADVVPLDANNRILTWQGMSRIRAGKCRPGIKALLEVANRDAQKLAASDLGFALGPRLNAAGRLDDMSVGVALLLCDNIGEARVLANELDALNQTRKEIEQGMQIEALTLCEKLERSRDTLPGGLAMYHPEWHQGVVGILASRIKERFHRPVIAFAPAGDGTLKGSGRSIQGLHMRDALERLDTLYPGMMLKFGGHAMAAGLSLEEDKFKLFQQRFGELVTEWLDPSLLQGEVVSDGPLSPAEMTMEVAQLLRDAGPWGQMFPEPLFDGHFRLLQQRLVGERHLKVMVEPVGGGPLLDGIAFNVDTALWPDNGVREVQLAYKLDINEFRGNRSLQIIIDNIWPI
Turning to B1, the binding result is listed as “no binding (tested: 1 μM)”.
